Measurements published in patent US9717772B2, “Interval therapy for the treatment of loss of eyesight in humans with glaucoma and other degenerative eye diseases” (Ramot at Tel-Aviv University Ltd., priority 2012, dated 2017).
Part of at least one peptide drawing is inferred or uncertain, most often the ends. Non-standard residues stand in square brackets, D forms with d. Residues, ends and D or L forms follow the SMILES beside them. Aib = CC(C)(N)C(=O)O

System: retinal ganglion cells
Assay: Rat model of glaucoma (chronic ocular hypertension, Morrison model): RGC apoptosis
Assay type: in vivo
Conditions: intermittent application in time intervals of 3 days up to 4 weeks (and even longer) vs continuous treatment

**Q.** With `CC(C)(NC(=O)[C@H](N)Cc1c[nH]c2ccccc12)C(=O)O` [D-Trp-Aib] (H-[dW]-[Aib]-OH; N-terminus and C-terminus assumed) as the compound, how does the “protection against Aβ toxicity” value read?
**A.** same efficacy as burdensome continuous treatment
